Assay results from paper PMC8814693 (Computational and Structural Biotechnology Journal, 2022).
No constants are given. Whether binding was seen depends on the method and setting. Some results given as binding are weak or reduced against the parent protein; the word gives no strength.

Chains of the proteins cited; added tags and fusions are not shown. Residues count along the entry.
UniProt Q5TBC7: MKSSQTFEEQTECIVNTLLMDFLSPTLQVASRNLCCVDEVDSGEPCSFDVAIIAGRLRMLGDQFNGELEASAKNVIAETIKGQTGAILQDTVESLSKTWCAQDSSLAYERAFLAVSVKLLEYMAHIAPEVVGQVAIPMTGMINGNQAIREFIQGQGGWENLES
UniProt P10415, residues 1-207: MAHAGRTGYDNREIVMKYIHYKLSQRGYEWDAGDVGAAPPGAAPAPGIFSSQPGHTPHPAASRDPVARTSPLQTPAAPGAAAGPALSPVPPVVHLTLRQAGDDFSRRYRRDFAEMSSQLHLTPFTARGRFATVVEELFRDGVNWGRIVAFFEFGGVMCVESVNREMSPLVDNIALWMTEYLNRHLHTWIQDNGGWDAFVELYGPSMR
UniProt Q07817, residues 1-209: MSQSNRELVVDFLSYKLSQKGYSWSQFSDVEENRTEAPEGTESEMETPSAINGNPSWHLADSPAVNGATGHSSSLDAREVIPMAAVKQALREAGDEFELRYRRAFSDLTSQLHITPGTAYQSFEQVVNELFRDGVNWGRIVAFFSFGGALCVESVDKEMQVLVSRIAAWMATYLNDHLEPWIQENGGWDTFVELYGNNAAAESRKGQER

Tests used:
[1] = molecular target: human full-length Bfk (Bcl-2 family kin) (human) (UniProt Q5TBC7); experiment: SPR; full-length Bfk amine-coupled to a CM5 chip (10 mM sodium acetate pH 3.6); Bcl-2, Bcl-XL (3.13-200 nM) and Bak (1.25-40.0 uM) injected in HBS-EP at 30 uL/min for 90 s; Biacore T200; both purified
[2] = molecular target: human full-length Bfk (Bcl-2 family kin) (human) (UniProt Q5TBC7); experiment: SEC; gel filtration step of the purification, HiLoad 16/600 Superdex 75 pg, 200 mM NaCl, 25 mM MES-NaOH pH 6.0; both purified
[3] = molecular target: T1, synthetic BH3 peptide derived from Bid (residues 79-100); experiment: SPR; Bid BH3 peptide amine-coupled to a CM5 chip (10 mM sodium acetate pH 4.0); proteins injected in HBS-EP (10 mM HEPES pH 7.5, 150 mM NaCl, 0.05 mM EDTA, 0.005% Tween 20) at 30 uL/min for 90 s; Biacore T200; affinity experiments, responses plotted against concentration; both purified
T1 sequence (peptide): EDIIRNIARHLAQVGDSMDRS

binding [1] | binding [2] | binding [3] | Substance
no binding (tested: 200 nM) |  |  | Bcl-2 (residues 1-207) (from UniProt P10415 1-207) (domain or fragment)
no binding (tested: 200 nM) |  |  | Bcl-XL (residues 1-209) (from UniProt Q07817-1 1-209) (domain or fragment)
 | binds weakly | no binding (tested: 40 μM) | human full-length Bfk (Bcl-2 family kin) (from UniProt Q5TBC7 1-163)
